# Test results from PMC5137149.
# Chains of the proteins cited; added tags and fusions are not shown.
# UniProt Q62940: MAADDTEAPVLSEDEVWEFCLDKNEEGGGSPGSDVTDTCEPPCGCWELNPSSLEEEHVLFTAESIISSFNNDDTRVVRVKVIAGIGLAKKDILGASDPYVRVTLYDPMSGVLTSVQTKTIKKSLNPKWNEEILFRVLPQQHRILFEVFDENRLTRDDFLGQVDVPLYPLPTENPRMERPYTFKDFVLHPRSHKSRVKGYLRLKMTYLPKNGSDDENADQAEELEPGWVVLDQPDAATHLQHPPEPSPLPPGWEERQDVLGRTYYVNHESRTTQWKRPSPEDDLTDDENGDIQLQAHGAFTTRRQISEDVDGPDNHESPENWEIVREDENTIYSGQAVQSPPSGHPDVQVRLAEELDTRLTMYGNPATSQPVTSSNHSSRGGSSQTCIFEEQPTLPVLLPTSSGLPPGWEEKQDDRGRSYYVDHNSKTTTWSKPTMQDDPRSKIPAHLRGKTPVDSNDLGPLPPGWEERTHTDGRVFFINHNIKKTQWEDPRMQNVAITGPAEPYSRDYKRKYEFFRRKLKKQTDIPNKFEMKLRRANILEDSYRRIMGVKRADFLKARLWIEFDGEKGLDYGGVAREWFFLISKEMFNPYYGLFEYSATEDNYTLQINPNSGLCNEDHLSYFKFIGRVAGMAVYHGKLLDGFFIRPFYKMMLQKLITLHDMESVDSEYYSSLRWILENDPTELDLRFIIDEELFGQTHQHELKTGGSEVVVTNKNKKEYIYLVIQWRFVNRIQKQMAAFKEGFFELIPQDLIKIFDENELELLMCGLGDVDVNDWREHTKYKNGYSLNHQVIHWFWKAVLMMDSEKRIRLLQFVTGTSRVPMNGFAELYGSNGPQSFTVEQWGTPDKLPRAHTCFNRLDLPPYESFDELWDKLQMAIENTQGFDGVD
# These are yes or no findings as the source states them, for the method shown. Binding seen in cells or lysates may run through a third protein. Binding can be weak; no strength is given.
# Molecular target: FLAG-tagged PPARγ2 ∆PPYY mutant (PPYY-sequence-deleted) (UniProt P37238)
# Test: co-IP; HEK293 cells transiently co-expressing T7-tagged NEDD4 and FLAG-tagged PPARγ2 or its PPxY mutants; immunoprecipitated with anti-PPARγ antibody (rabbit clone T.647.5 in Fig. 1C, mouse anti-PPARγ in Fig. 2B,C); 25 mM Tris-HCl, 150 mM NaCl, 1% NP-40
substance,measurement,value
"T7-tagged NEDD4 (rat, wild type; pRc-CMV-T7-NEDD4) (from UniProt Q62940 1-887) (enzyme)",binding,binds
